# Test results: the supplement of paper PMC8728848
# This is one part of the list.
# B1: LlpB (Pseudomonas fluorescens) (protein)
# chain: MGSSHHHHHHSSGLVPRGSHMASSGFRIILFNSANNGTAILPPRNCLVAGQYLESPSKRYKLILEADGNLRLYDNGVPIWVADSSVPYTYVDNRPNTNLVTCFYMQGSAFLVDRVGSRTWATIGDWIDGAADRAYLQVQDDGNVVVVDGVPRWARFGFTPAALPNRGVFYPDHGTGPLPSFPVWSWTF
# How the values were obtained:
# Experiment in all cases: glycan array binding signal (z-score within array); higher = stronger binding
# Details in all cases: glycan notation: IUPAC condensed, linker removed
# [1] = biological target: Gal(b1-4)GlcNAc(b1-3)Gal(b1-4)GlcNAc(b1-6)[Gal(b1-3)]GalNAc
# Procedure, shortened: (§1)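 Arrays were curated from the Consortium for Functional Glycomics database, 3228 in total, and kept only where the protein sequence was available. Binding is expressed as a within-array Z-score. This score was averaged across arrays of the same protein sequence at different concentrations or buffers and across linkers, and negative values can be read as non-binding.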
# [2] = biological target: Gal(b1-4)GlcNAc(b1-3)Gal(b1-4)[Fuc(a1-3)]GlcNAc(b1-3)Gal(b1-4)[Fuc(a1-3)]GlcNAc
# Procedure, shortened: as §1
# [3] = biological target: Gal(b1-4)GlcNAc(b1-3)GalNAc
# Procedure, shortened: as §1
# [4] = biological target: Gal(b1-4)GlcNAc(b1-3)[Fuc(a1-3)GlcNAc(b1-6)]Gal(b1-4)Glc
# Procedure, shortened: as §1
# [5] = biological target: Gal(b1-4)GlcNAc(b1-3)[Gal(b1-4)GlcNAc(b1-6)]Gal(b1-4)GlcNAc
# Procedure, shortened: as §1
# [6] = biological target: Gal(b1-4)GlcNAc(b1-3)[GlcNAc(b1-6)]Gal(b1-4)GlcNAc
# Procedure, shortened: as §1
# [7] = biological target: Gal(b1-4)GlcNAc(b1-6)Gal(b1-4)GlcNAc
# Procedure, shortened: as §1
# [8] = biological target: Gal(b1-4)GlcNAc(b1-6)GalNAc
# Procedure, shortened: as §1
# [9] = biological target: Gal(b1-4)GlcNAc(b1-6)[Gal(b1-3)]GalNAc
# Procedure, shortened: as §1
# [10] = biological target: Gal(b1-4)GlcNAc(b1-6)[Gal(b1-4)GlcNAc(b1-3)]GalNAc
# Procedure, shortened: as §1
# Gal(b1-4)GlcNAc6P = biological target: Gal(b1-4)GlcNAc6P
# Procedure, shortened: as §1
# Gal(b1-6)Gal = biological target: Gal(b1-6)Gal
# Procedure, shortened: as §1
# Gal3S(b1-3)GalNAc = biological target: Gal3S(b1-3)GalNAc
# Procedure, shortened: as §1
# Gal3S(b1-3)GlcNAc = biological target: Gal3S(b1-3)GlcNAc
# Procedure, shortened: as §1
# [11] = biological target: Gal3S(b1-3)[Fuc(a1-4)]GlcNAc
# Procedure, shortened: as §1
# Gal3S(b1-4)Glc = biological target: Gal3S(b1-4)Glc
# Procedure, shortened: as §1
# Gal3S(b1-4)Glc6S = biological target: Gal3S(b1-4)Glc6S
# Procedure, shortened: as §1
# Gal3S(b1-4)GlcNAc = biological target: Gal3S(b1-4)GlcNAc
# Procedure, shortened: as §1
# [12] = biological target: Gal3S(b1-4)[Fuc(a1-3)]Glc6S
# Procedure, shortened: as §1
# [13] = biological target: Gal3S(b1-4)[Fuc(a1-3)]GlcNAc
# Procedure, shortened: as §1
# [14] = biological target: Gal3S(b1-4)[Fuc(a1-3)]GlcNAc6S
# Procedure, shortened: as §1
# Gal3S4S(b1-4)GlcNAc = biological target: Gal3S4S(b1-4)GlcNAc
# Procedure, shortened: as §1
# Gal3S6S(b1-4)GlcNAc = biological target: Gal3S6S(b1-4)GlcNAc
# Procedure, shortened: as §1
# Gal3S6S(b1-4)GlcNAc6S = biological target: Gal3S6S(b1-4)GlcNAc6S
# Procedure, shortened: as §1
# Gal4S(b1-4)GlcNAc = biological target: Gal4S(b1-4)GlcNAc
# Procedure, shortened: as §1
# Gal4S6S(b1-4)GlcNAc = biological target: Gal4S6S(b1-4)GlcNAc
# Procedure, shortened: as §1
# Gal6P(b1-4)GlcNAc = biological target: Gal6P(b1-4)GlcNAc
# Procedure, shortened: as §1
# Gal6S(b1-3)GlcNAc = biological target: Gal6S(b1-3)GlcNAc
# Procedure, shortened: as §1
# Gal6S(b1-3)GlcNAc6S = biological target: Gal6S(b1-3)GlcNAc6S
# Procedure, shortened: as §1
# Gal6S(b1-4)Glc = biological target: Gal6S(b1-4)Glc
# Procedure, shortened: as §1
# Gal6S(b1-4)Glc6S = biological target: Gal6S(b1-4)Glc6S
# Procedure, shortened: as §1
# Gal6S(b1-4)GlcNAc = biological target: Gal6S(b1-4)GlcNAc
# Procedure, shortened: as §1
# Gal6S(b1-4)GlcNAc6S = biological target: Gal6S(b1-4)GlcNAc6S
# Procedure, shortened: as §1
# GalNAc(a1-3)Gal = biological target: GalNAc(a1-3)Gal
# Procedure, shortened: as §1
# GalNAc(a1-3)GalNAc = biological target: GalNAc(a1-3)GalNAc
# Procedure, shortened: as §1
# [15] = biological target: GalNAc(a1-3)GalNAc(b1-3)Gal(a1-4)Gal(b1-4)Glc
# Procedure, shortened: as §1
# [16] = biological target: GalNAc(a1-3)GalNAc(b1-3)Gal(a1-4)Gal(b1-4)GlcNAc
# Procedure, shortened: as §1
# GalNAc(b1-3)Gal = biological target: GalNAc(b1-3)Gal
# Procedure, shortened: as §1
# [17] = biological target: GalNAc(b1-3)Gal(a1-4)Gal(b1-4)GlcNAc
# Procedure, shortened: as §1
# [18] = biological target: GalNAc(b1-3)Gal(a1-4)Gal(b1-4)GlcNAc(b1-3)Gal(b1-4)Glc
# Procedure, shortened: as §1
# [19] = biological target: GalNAc(b1-3)Gal(a1-6)Gal(b1-4)Glc
# Procedure, shortened: as §1
# GalNAc(b1-3)GalNAc = biological target: GalNAc(b1-3)GalNAc
# Procedure, shortened: as §1
# GalNAc(b1-3)GlcNAc = biological target: GalNAc(b1-3)GlcNAc
# Procedure, shortened: as §1
# GalNAc(b1-4)Gal(b1-4)Glc = biological target: GalNAc(b1-4)Gal(b1-4)Glc
# Procedure, shortened: as §1
# GalNAc(b1-4)GlcNAc = biological target: GalNAc(b1-4)GlcNAc
# Procedure, shortened: as §1
binder,measurement,setting,value
B1,glycan array binding signal (z-score),[1],-0.114
same,glycan array binding signal (z-score),[2],-0.988
same,glycan array binding signal (z-score),[3],-0.663
same,glycan array binding signal (z-score),[4],0.466
same,glycan array binding signal (z-score),[5],-1.01
same,glycan array binding signal (z-score),[6],-0.183
same,glycan array binding signal (z-score),[7],1.58
same,glycan array binding signal (z-score),[8],-0.075
same,glycan array binding signal (z-score),[9],0.018
same,glycan array binding signal (z-score),[10],-0.955
same,glycan array binding signal (z-score),Gal(b1-4)GlcNAc6P,0.332
same,glycan array binding signal (z-score),Gal(b1-6)Gal,-0.442
same,glycan array binding signal (z-score),Gal3S(b1-3)GalNAc,0.166
same,glycan array binding signal (z-score),Gal3S(b1-3)GlcNAc,0.098
same,glycan array binding signal (z-score),[11],0.272
same,glycan array binding signal (z-score),Gal3S(b1-4)Glc,0.751
same,glycan array binding signal (z-score),Gal3S(b1-4)Glc6S,0.262
same,glycan array binding signal (z-score),Gal3S(b1-4)GlcNAc,1.46
same,glycan array binding signal (z-score),[12],-0.617
same,glycan array binding signal (z-score),[13],-1.03
same,glycan array binding signal (z-score),[14],-0.616
same,glycan array binding signal (z-score),Gal3S4S(b1-4)GlcNAc,-0.851
same,glycan array binding signal (z-score),Gal3S6S(b1-4)GlcNAc,-0.361
same,glycan array binding signal (z-score),Gal3S6S(b1-4)GlcNAc6S,-0.319
same,glycan array binding signal (z-score),Gal4S(b1-4)GlcNAc,-0.386
same,glycan array binding signal (z-score),Gal4S6S(b1-4)GlcNAc,0.612
same,glycan array binding signal (z-score),Gal6P(b1-4)GlcNAc,-0.315
same,glycan array binding signal (z-score),Gal6S(b1-3)GlcNAc,-0.975
same,glycan array binding signal (z-score),Gal6S(b1-3)GlcNAc6S,-1.7
same,glycan array binding signal (z-score),Gal6S(b1-4)Glc,-1.15
same,glycan array binding signal (z-score),Gal6S(b1-4)Glc6S,-0.418
same,glycan array binding signal (z-score),Gal6S(b1-4)GlcNAc,-0.499
same,glycan array binding signal (z-score),Gal6S(b1-4)GlcNAc6S,-0.293
same,glycan array binding signal (z-score),GalNAc(a1-3)Gal,-0.628
same,glycan array binding signal (z-score),GalNAc(a1-3)GalNAc,-1.05
same,glycan array binding signal (z-score),[15],0.945
same,glycan array binding signal (z-score),[16],0.124
same,glycan array binding signal (z-score),GalNAc(b1-3)Gal,-1.09
same,glycan array binding signal (z-score),[17],-0.832
same,glycan array binding signal (z-score),[18],0.041
same,glycan array binding signal (z-score),[19],0.079
same,glycan array binding signal (z-score),GalNAc(b1-3)GalNAc,-0.537
same,glycan array binding signal (z-score),GalNAc(b1-3)GlcNAc,-0.516
same,glycan array binding signal (z-score),GalNAc(b1-4)Gal(b1-4)Glc,-0.149
same,glycan array binding signal (z-score),GalNAc(b1-4)GlcNAc,0.773

# Not a retest: entries from further up.
binder,measurement,setting,value
B1,glycan array binding signal (z-score),Gal6P(b1-4)GlcNAc,-0.315
same,glycan array binding signal (z-score),Gal6S(b1-3)GlcNAc,-0.975
same,glycan array binding signal (z-score),Gal6S(b1-3)GlcNAc6S,-1.7
same,glycan array binding signal (z-score),Gal6S(b1-4)Glc,-1.15
same,glycan array binding signal (z-score),Gal6S(b1-4)Glc6S,-0.418
same,glycan array binding signal (z-score),Gal6S(b1-4)GlcNAc,-0.499
same,glycan array binding signal (z-score),Gal6S(b1-4)GlcNAc6S,-0.293
same,glycan array binding signal (z-score),GalNAc(a1-3)Gal,-0.628
